This is one part of the list.
Columns and labels:
Test in all cases: log2 fold change, soluble protein after heating vs DMSO (PISA); higher = thermal stabilisation; K562 cells, 10 uM, 30 min; active = over 0.2 and 3.5 SD of the protein, either way, in both replicates (recomputed)
[1] = compound: C1=CC=C(C=C1)[C@H](COC2=CC3=C(C=C2)NC(=O)N3)NC(=O)C4=CC=CN(C4=O)CC5=CC(=C(C=C5)F)F
Outline: (§1)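 For each measurement, 10 μM compound was applied for 30 min to K562 cells at 2×10^6 cells/mL. Aliquots were heated for 3 min across 48°C-58°C, pooled, and extracted in PBS with 0.5% NP-40 at 4°C; the supernatant after 21,000xg for 90 min was soluble protein. This was quantified by TMTpro 16plex LC-MS/MS with channel sums equalised, and thermal stability was reported relative to control samples from duplicates, on a log2 fold-change scale.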

Amino acid sequences for entries named in this document (tags omitted). A change or cut given only in a name is not applied to a line headed by its entry.
UniProt O00244: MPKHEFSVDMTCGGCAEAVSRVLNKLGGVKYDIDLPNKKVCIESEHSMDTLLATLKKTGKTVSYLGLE
UniProt O75964: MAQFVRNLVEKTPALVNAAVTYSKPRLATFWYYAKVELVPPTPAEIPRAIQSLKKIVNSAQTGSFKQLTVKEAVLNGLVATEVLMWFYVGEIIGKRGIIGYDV
UniProt Q9NVJ2: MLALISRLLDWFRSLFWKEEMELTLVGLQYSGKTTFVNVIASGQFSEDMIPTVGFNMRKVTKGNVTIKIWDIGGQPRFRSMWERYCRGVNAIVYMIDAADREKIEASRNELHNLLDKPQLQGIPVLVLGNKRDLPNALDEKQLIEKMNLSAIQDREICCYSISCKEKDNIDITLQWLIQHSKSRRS
UniProt P27449, whole entry, looked up: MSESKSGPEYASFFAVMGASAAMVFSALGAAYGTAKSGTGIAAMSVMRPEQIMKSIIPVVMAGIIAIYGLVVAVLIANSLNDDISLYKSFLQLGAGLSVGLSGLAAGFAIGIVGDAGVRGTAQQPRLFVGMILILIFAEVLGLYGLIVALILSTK
UniProt Q9H7F0: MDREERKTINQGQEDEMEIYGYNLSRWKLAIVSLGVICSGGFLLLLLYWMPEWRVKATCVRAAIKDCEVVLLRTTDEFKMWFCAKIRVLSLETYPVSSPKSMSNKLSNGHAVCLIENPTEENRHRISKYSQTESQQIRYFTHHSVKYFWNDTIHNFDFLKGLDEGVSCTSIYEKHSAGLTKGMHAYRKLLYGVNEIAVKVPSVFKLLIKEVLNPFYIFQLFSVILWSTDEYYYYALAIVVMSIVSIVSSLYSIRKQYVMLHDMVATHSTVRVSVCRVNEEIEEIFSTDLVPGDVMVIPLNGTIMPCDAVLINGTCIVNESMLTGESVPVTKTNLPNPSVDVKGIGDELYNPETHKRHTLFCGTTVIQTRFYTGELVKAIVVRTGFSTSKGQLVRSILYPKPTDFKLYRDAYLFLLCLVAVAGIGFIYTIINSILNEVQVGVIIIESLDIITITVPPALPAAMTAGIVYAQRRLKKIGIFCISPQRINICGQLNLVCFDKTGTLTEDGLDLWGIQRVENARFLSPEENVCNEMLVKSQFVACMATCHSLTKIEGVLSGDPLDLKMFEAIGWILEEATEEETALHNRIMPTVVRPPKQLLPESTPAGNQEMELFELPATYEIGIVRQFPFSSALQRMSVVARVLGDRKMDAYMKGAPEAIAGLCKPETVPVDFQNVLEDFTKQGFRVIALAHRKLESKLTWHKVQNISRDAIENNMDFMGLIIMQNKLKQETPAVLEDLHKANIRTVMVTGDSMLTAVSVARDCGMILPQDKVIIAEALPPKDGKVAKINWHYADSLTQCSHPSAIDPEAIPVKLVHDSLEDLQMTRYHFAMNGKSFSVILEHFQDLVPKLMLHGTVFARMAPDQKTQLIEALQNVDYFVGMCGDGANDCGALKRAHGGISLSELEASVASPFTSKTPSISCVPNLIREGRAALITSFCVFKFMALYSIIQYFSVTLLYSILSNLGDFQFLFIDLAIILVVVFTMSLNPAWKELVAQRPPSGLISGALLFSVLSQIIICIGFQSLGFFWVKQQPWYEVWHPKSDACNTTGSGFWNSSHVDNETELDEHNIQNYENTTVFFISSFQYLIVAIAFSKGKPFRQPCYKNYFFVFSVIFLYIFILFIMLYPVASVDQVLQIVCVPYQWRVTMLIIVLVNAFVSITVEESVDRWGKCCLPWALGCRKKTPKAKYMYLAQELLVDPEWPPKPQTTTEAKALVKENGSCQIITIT
UniProt O75915: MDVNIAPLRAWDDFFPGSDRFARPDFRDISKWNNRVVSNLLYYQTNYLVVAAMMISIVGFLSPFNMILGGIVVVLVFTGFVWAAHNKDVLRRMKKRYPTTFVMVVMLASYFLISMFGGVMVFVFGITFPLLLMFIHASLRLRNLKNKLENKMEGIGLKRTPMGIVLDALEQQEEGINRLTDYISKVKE
UniProt P98196: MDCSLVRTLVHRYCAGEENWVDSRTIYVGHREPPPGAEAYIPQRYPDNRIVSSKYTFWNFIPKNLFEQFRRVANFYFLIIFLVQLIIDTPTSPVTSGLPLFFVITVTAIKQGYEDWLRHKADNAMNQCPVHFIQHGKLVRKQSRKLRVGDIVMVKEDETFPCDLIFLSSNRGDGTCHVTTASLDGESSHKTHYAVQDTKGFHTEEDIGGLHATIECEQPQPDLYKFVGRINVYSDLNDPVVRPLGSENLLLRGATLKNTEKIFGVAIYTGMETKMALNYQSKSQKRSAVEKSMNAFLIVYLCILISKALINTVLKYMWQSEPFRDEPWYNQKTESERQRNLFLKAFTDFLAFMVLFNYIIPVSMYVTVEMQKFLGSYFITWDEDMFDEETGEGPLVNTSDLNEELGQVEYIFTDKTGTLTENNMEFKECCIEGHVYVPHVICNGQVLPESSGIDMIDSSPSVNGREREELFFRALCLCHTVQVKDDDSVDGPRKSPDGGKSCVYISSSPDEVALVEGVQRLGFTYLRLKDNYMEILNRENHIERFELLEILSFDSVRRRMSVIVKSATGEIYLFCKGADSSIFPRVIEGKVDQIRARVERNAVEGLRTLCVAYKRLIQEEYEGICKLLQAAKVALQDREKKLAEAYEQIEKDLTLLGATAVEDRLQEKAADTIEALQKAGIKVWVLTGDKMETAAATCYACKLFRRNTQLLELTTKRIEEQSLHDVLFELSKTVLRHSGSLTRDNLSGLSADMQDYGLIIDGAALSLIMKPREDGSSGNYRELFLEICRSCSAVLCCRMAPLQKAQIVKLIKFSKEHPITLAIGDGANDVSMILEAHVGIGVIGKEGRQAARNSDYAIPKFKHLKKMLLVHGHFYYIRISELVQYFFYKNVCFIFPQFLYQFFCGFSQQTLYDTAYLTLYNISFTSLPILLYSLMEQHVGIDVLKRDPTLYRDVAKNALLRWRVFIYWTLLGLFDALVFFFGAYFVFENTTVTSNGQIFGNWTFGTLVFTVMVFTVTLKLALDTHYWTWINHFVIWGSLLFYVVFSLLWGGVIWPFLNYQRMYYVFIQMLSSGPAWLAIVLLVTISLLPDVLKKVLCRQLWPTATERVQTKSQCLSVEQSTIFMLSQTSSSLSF
UniProt O95376: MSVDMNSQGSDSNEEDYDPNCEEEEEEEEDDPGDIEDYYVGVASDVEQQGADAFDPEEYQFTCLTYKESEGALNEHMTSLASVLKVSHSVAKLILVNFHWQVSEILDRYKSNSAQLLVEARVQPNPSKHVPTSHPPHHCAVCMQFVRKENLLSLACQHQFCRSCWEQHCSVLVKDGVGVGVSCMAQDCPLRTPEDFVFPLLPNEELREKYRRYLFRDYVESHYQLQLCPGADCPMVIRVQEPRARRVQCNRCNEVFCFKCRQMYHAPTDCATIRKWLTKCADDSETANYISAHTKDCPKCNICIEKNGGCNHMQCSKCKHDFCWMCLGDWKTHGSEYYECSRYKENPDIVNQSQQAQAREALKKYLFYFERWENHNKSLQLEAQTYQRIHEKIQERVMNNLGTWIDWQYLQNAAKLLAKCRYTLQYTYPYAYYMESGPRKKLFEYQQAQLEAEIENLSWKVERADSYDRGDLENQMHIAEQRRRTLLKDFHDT
UniProt Q8N3C0, whole entry, looked up: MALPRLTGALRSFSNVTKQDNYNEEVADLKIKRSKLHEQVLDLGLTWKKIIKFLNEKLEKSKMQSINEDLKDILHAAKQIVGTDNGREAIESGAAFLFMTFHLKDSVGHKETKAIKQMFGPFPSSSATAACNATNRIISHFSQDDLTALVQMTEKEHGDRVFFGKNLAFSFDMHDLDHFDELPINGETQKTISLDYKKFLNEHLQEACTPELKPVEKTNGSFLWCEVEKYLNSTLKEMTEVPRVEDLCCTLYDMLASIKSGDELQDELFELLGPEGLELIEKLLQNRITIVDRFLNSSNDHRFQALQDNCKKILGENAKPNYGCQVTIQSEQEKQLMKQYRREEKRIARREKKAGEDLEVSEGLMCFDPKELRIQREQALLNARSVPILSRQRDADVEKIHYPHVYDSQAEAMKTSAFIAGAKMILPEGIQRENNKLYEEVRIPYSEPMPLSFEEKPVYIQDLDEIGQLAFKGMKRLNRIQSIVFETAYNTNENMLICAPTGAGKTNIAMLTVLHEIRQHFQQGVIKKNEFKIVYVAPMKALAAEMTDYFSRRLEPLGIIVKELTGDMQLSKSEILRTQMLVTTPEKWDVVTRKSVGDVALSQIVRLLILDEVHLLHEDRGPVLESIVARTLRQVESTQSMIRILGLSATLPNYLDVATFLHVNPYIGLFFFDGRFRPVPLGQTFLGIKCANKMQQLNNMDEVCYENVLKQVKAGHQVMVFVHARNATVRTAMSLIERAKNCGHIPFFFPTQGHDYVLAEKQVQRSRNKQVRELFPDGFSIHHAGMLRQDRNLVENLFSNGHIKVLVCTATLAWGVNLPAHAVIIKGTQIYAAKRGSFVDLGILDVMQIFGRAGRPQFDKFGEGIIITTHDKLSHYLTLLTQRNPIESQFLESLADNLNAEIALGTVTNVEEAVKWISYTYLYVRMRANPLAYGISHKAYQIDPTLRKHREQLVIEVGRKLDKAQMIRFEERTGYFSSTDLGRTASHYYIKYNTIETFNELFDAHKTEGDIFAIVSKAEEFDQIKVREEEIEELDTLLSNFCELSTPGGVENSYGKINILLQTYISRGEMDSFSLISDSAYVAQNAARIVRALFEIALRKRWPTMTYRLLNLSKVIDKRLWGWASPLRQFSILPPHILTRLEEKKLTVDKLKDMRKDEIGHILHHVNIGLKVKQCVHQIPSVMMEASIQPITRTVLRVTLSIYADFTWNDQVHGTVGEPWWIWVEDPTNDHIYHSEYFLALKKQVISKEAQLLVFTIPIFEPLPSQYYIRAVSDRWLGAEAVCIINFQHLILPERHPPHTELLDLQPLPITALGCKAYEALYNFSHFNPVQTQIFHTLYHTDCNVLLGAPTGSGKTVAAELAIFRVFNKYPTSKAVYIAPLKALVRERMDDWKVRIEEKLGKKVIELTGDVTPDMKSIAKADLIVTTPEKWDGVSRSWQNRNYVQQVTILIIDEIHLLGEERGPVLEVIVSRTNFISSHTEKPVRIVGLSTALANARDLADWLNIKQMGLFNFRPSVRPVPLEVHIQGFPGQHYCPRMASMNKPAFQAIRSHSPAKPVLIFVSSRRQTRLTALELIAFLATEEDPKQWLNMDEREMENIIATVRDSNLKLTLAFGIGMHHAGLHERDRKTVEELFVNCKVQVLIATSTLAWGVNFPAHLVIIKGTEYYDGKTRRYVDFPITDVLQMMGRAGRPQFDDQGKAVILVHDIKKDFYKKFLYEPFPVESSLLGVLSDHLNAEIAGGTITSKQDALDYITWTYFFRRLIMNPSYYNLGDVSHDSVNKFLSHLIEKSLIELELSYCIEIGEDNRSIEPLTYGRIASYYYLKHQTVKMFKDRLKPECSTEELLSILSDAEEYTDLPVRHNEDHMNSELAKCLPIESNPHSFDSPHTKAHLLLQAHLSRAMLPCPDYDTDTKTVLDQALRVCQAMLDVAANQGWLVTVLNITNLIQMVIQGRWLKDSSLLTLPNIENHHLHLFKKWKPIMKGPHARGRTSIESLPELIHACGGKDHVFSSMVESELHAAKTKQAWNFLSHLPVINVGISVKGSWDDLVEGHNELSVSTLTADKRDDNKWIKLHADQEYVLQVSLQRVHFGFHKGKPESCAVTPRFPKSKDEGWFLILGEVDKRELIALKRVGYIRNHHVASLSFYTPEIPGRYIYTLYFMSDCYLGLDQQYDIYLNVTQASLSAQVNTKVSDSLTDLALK
UniProt P56211: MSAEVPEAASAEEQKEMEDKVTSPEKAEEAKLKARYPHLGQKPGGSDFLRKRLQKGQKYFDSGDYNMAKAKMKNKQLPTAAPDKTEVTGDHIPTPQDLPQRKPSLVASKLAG
UniProt Q06055: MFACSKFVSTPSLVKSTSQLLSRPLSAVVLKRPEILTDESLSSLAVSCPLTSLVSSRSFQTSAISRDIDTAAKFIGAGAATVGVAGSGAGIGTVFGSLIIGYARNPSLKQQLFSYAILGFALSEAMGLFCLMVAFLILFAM
UniProt Q96IX5: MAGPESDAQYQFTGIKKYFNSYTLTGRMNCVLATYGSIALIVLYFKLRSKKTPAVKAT
UniProt P04424, whole entry, looked up: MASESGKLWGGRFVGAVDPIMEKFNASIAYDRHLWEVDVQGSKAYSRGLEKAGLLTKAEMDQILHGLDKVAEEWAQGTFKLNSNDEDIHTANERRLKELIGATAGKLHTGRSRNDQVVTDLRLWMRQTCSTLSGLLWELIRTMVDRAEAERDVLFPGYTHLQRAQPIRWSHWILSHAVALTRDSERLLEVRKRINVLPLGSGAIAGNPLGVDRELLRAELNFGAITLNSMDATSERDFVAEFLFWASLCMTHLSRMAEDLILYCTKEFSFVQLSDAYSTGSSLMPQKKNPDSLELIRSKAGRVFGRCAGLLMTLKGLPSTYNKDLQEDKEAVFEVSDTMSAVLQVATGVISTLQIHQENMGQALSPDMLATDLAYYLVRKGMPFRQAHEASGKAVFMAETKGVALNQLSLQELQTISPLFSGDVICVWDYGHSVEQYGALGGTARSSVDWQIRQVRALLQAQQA

[2] = compound: CC1=C(SC2=C1C(=N[C@H](C3=NN=C(N32)C)CC(=O)N)C4=CC=C(C=C4)Cl)C
Outline: as §1

[3] = compound: CC1=C2C(=CC=C1)N=C(N(C2=O)C3=CC=CC=C3C)CN4C=NC5=C(N=CN=C54)N
Outline: as §1

[4] = compound: Cc1sc2c(c1C)C(c1ccc(Cl)cc1)=N[C@@H](CC(=O)OC(C)(C)C)c1nnc(C)n1-2
Outline: as §1

[5] = compound: c1ccc([C@@H]2C[C@H]2NC2CCNCC2)cc1
Outline: as §1

Measured: log2 fold change

ATG9A (UniProt Q7Z3C6)
inactive: [1] 0.018 | [2] 0.014 | [3] 0.021 | [4] -0.028 | [5] -0.05

ASMTL (UniProt O95671)
inactive: [1] -0.29 | [2] -0.048 | [3] 0.198 | [4] 0.109 | [5] -0.016

ATP11C (UniProt Q8NB49)
inactive: [1] -0.012 | [2] 0.073 | [3] 0.05 | [4] -0.043 | [5] 0.026

ATOX1 (UniProt O00244)
inactive: [1] 0.033 | [2] 0.124 | [3] 0.101 | [4] -0.153 | [5] 0.008

ATP5MG (UniProt O75964)
inactive: [1] 0.013 | [2] 0.039 | [3] 0.058 | [4] -0.131 | [5] -0.086

ARPC2 (UniProt O15144)
inactive: [1] 0.02 | [2] 0.019 | [3] 0.036 | [4] -0.033 | [5] 0.04

ARL8B (UniProt Q9NVJ2)
inactive: [1] 0.017 | [2] 0 | [3] -0.02 | [4] 0.009 | [5] 0.041

ATP6V0C (UniProt P27449)
inactive: [1] 0.024 | [2] -0.156 | [3] -0.543 | [4] -0.228 | [5] -0.081

ATP5F1A (UniProt P25705)
inactive: [1] -0.009 | [2] -0.018 | [3] -0.019 | [4] 0.013 | [5] 0.012

ATP13A3 (UniProt Q9H7F0)
inactive: [1] -0.038 | [2] 0.008 | [3] 0.016 | [4] 0.018 | [5] -0.101

ATP7A isoform 3 (UniProt Q04656)
inactive: [1] 0.021 | [2] 0.044 | [3] 0.07 | [4] 0.02 | [5] -0.021

ARL6IP5 (UniProt O75915)
inactive: [1] 0.029 | [2] 0.081 | [3] 0.032 | [4] -0.006 | [5] 0.002

ATG2A isoform 3 (UniProt Q2TAZ0)
inactive: [1] -0.003 | [2] 0.063 | [3] 0.029 | [4] 0.013 | [5] -0.009

ATF7 isoform 6 (UniProt P17544)
inactive: [1] -0.097 | [2] 0 | [3] -0.187 | [4] 0.184 | [5] -0.034

ATP6V0A1 isoform 3 (UniProt Q93050)
inactive: [1] 0.115 | [2] -0.07 | [3] 0.005 | [4] -0.07 | [5] -0.149

2 consecutive entries already listed:
ATP7A isoform 3 (UniProt Q04656)
inactive: [1] 0.021 | [2] 0.044 | [3] 0.07 | [4] 0.02 | [5] -0.021

ARL6IP5 (UniProt O75915)
inactive: [1] 0.029 | [2] 0.081 | [3] 0.032 | [4] -0.006 | [5] 0.002

Next part:

ATP11A (UniProt P98196)
inactive: [1] 0.001 | [2] -0.003 | [3] 0.085 | [4] -0.034 | [5] 0.062

ASNA1 (UniProt O43681)
inactive: [1] 0.043 | [2] 0.005 | [3] 0.003 | [4] 0 | [5] 0.003

ARIH2 (UniProt O95376)
inactive: [1] -0.011 | [2] -0.074 | [3] -0.018 | [4] -0.029 | [5] 0.043

ARSB (UniProt P15848)
inactive: [1] -0.028 | [2] 0.068 | [3] 0.025 | [4] -0.043 | [5] 0.027

ASCC3 (UniProt Q8N3C0)
inactive: [1] 0.104 | [2] 0.023 | [3] 0.084 | [4] 0.318 | [5] -0.003

ARPP19 (UniProt P56211)
inactive: [1] 0.003 | [2] 0.021 | [3] -0.076 | [4] 0.031 | [5] -0.007

ATP5MC2 isoform 2 (UniProt Q06055)
inactive: [1] 0.01 | [2] -0.034 | [3] -0.007 | [4] -0.048 | [5] 0.062

ATP5MD (UniProt Q96IX5)
inactive: [1] 0.093 | [2] 0.09 | [3] 0.07 | [4] -0.084 | [5] -0.025

ASL (UniProt P04424)
inactive: [1] 0.008 | [2] -0.02 | [3] 0.013 | [4] -0.022 | [5] 0.04
